Measured values: patent publication US6897197
No constants are given. Whether binding was seen depends on the method and setting. Some results given as binding are weak or reduced against the parent protein; the word gives no strength.

By UniProt entry, the sequences of proteins in these tests, tags left out. Residues count along the entry.
UniProt P23804, residues 50-489: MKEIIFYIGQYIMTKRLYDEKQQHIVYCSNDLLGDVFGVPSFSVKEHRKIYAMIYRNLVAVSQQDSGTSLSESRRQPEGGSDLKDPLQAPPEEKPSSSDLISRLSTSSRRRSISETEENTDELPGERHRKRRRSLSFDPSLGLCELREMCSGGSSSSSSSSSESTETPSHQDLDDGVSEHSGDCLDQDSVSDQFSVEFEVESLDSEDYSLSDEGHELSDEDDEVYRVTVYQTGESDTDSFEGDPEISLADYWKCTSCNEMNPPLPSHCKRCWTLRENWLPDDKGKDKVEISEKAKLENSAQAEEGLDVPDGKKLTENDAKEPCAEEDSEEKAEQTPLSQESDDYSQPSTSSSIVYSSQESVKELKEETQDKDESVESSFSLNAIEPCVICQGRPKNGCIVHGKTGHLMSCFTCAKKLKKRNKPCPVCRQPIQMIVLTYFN

What was measured:
[1] = molecular target: p76/p74 species of MDM2 of 3T3DM cells, lacking the N-terminal p53 binding domain (UniProt P23804); assay: anti-p19^ARF immunoprecipitation, anti-MDM2 Western blot, untransfected 3T3DM cells
[2] = molecular target: p76/p74 species of MDM2 of 3T3DM cells, lacking the N-terminal p53 binding domain (UniProt P23804); assay: anti-p19^ARF immunoprecipitation, anti-MDM2 (2A10) Western blot, untransfected 3T3DM cells

binding [1]: binds | binding [2]: binds
B1: endogenous p19^ARF of untransfected 3T3DM cells (protein, UniProt Q64364 1-169, looked up)
chain: MGRRFLVTVRIQRAGRPLQERVFLVKFVRSRRPRTASCALAFVNMLLRLERILRRGPHRNPGPGDDDGQRSRSSSSAQLRCRFELRGPHYLLPPGARRSAGRLPGHAGGAARVRGSAGCARCLGSPAARLGPRAGTSRHRAIFAFRWVLFVFRWVVFVYRWERRPDRRA
